Out of some 360,000 compounds screened, about 10,000 (2.8%) were called active. This list was built around the results that the source calls inconclusive (neither active nor inactive); the mix of calls is not that of the screen. The call rests on the fitted dose curve; in most records, active means well fitted inhibition curve with a large enough effect; inconclusive means small, poorly fitted or top-dose-only effect; inactive means flat fitted curve, though single readings scatter. Where the call is inconclusive, the potency comes from a doubtful curve fit.
biological target: Serine/threonine-protein kinase PLK1 (Homo sapiens) (UniProt P53350); assay: qHTS for Inhibitors of PLK1-PDB (polo-like kinase 1 - polo-box domain): Primary Screen; conditions: Plk1 PBD binding of FITC phosphopeptide, fluorescence polarization; further: nearly all actives have a fitted effect of over 65% in size; on max response, negative = inhibition: series mostly up to about 57 µM
On the % scale 0 is the no-effect control and ±100 the full control effect; potency means the concentration at half of the fitted maximal effect.

Sequences of proteins named here, by UniProt entry; tags and fusion partners are left off.
UniProt P53350, whole entry, looked up: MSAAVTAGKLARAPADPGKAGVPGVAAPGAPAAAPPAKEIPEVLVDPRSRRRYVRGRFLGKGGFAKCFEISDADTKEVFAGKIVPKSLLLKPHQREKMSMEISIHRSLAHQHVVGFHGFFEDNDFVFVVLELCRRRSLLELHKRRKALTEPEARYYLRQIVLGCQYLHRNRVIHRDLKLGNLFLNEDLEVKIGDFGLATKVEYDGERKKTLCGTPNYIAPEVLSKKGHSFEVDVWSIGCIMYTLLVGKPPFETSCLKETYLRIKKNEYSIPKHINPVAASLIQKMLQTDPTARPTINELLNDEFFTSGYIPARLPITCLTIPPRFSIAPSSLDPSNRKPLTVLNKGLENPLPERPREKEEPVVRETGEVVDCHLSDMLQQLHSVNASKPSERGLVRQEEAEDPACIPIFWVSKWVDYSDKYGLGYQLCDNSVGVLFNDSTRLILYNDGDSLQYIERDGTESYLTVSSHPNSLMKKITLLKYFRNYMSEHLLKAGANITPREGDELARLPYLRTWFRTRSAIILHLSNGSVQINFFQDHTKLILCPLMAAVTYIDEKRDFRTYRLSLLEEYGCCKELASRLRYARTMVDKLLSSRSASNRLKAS

SMILES | Potency | max response, negative = inhibition
N#C/C(=C(/O)c1ccc2c(c1)OCO2)c1nc2cc(C(F)(F)F)ccc2s1 | inconclusive: 37.7 µM [inhibitor, single point] | 
O=C(O)CN1C(=O)/C(=C\c2cc(Br)ccc2OCc2ccc(Cl)cc2)SC1=S | active: 8.44 µM | 
CCCCNC(=O)N1CCc2[nH]c3ccccc3c2C1 | inconclusive: 29.9 µM [inhibitor, partial curve] | 
O=[N+]([O-])c1ccc(OCc2cnc(Cl)s2)c([N+](=O)[O-])c1 | inconclusive: 8.44 µM [inhibitor, single point] | 
COc1ccc(C(=O)NC(=S)N2CCNC(=O)C2)cc1Br | inconclusive: 21.2 µM [inhibitor, partial curve] | 
CN1CCN(C(=S)C(=O)Nc2ccc(Br)cc2)CC1 | active: 2.38 µM | 
COc1cc2c(cc1OC)C(C)N(C(=O)c1cccc([N+](=O)[O-])c1)CC2 (centres undefined) |  | inconclusive: -30.6% [inhibitor]
O=C(CSCC(=O)c1ccc([N+](=O)[O-])cc1)c1ccc([N+](=O)[O-])cc1 | inconclusive: 26.7 µM [inhibitor, partial curve] | 
COC(=O)c1c(-c2cccc(OC)c2)csc1N | inconclusive: 26.7 µM [inhibitor, single point] | 
Fc1ccc2nc(-c3ccccc3)nc(SCc3nnc(-c4ccccc4)o3)c2c1 | inconclusive: 23.8 µM [inhibitor, single point] | 
CCC(c1nnc(SCc2nc3ccccc3s2)n1Cc1ccccc1)N(C)C (centres undefined) |  | inactive: -3.23%
CC(C)(C)c1ccc(Cn2nnc3c(=O)[nH]c(C4CCN(C(=O)c5ccco5)CC4)nc32)cc1 | inconclusive: 33.6 µM [inhibitor, single point] | 
Nc1scc2c(C(=O)N/N=C/c3ccc(Cl)cc3)nn(-c3ccccc3)c(=O)c12 | inconclusive: 29.9 µM [inhibitor, partial curve] | 
O=C(O)c1ccc(-n2c(=O)c3ccccc3c3ccccc3c2=O)cc1 | inconclusive: 21.2 µM [inhibitor, partial curve] | 
O=C1/C(=C\c2ccc(Br)cc2)SC(=S)N1NS(=O)(=O)c1ccccc1 | active: 21.2 µM | 
O=C(NNC1=NS(=O)(=O)c2ccccc21)c1ccccc1Cl | inconclusive: 26.7 µM [inhibitor, single point] | 
COCCC(=O)N1CCC(Oc2ccc(C(=O)N3CCCC(OC)C3)cc2)CC1 (centres undefined) | active: 26.7 µM | 
O=C(Nc1nnc(-c2ccc3c(c2)CCCC3)o1)C1COc2ccccc2O1 (centres undefined) |  | inactive: -29.9%
Cc1ccc(C)c(C(=O)OCC(=O)Nc2cccc(S(=O)(=O)N3CCCCC3)c2)c1 |  | inactive: 0.984%
O=c1[nH]c(=S)[nH]c2sc3c(c12)CCCCCC3 | inconclusive: 21.2 µM [inhibitor, partial curve] | 
Cc1ccc(S(=O)(=O)N2[C@@H](c3ccc(Cl)c(Cl)c3)C(C(=O)O)=C[C@H]2C(C)(C)C)cc1 | inconclusive: 21.2 µM [inhibitor, partial curve] | 
O=C(N/N=C/c1cc([N+](=O)[O-])ccc1O)c1cccc(N2CCCC2=O)c1 |  | inactive: -6.08%
C#CCN(N(C)c1ncc(C(F)(F)F)cc1Cl)S(=O)(=O)c1ccc2ccccc2c1 | inconclusive: 26.7 µM [inhibitor, partial curve] | 

SMILES | Potency | max response, negative = inhibition
Cn1ccnc1SCC(=O)Nc1ccc2nc(SCC(=O)NC3CC3)sc2c1 |  | inactive: -19.8%
CCC(C(=O)NCC1CCCO1)N(Cc1ccccc1)C(=O)CNS(=O)(=O)c1ccccc1 (centres undefined) | inconclusive: 33.6 µM [inhibitor, single point] | 
CCOC(=O)c1sc(NC(=O)c2ccccc2C(=O)O)c(C(=O)OCC)c1C | inconclusive: 37.7 µM [inhibitor, single point] | 
CCOc1ccc(-c2nnc3ccc(SCC(=O)N4CCCCC4)nn23)cc1 |  | inactive: -19.9%
COC(=O)C1=C[C@@H](C(=O)OC)[C@@H]2C3=C(C(=O)[C@]2(CC(C)C)NC(=O)c2ccccc2)[C@H](C)n2c(=O)n(-c4ccccc4)c(=O)n2[C@@H]3C1 | inconclusive: 21.2 µM [inhibitor, single point] | 
COC(=O)c1ccc(CN(c2ccc(C)cc2)S(=O)(=O)c2ccc3c(c2)OCCO3)o1 | active: 2.99 µM | 
N#Cc1c2ccc(O)cc2n2ccccc12 | inconclusive: 15 µM [inhibitor, partial curve] | 
Cc1cccc(N2C(=O)CC(Sc3nc(C)c4c(n3)CCCC4)C2=O)c1 (centres undefined) |  | inconclusive: -30.2% [inhibitor]
O=C1[C@@H]2C(c3cccnc3)=NO[C@@H]2C(=O)N1c1ccc(Br)cc1 | inconclusive: 29.9 µM [inhibitor, single point] | 
Cc1cc(N2C(=O)C(=O)/C(=C(/O)c3ccc(Cl)cc3)C2c2cccc(Br)c2)no1 (centres undefined) | inconclusive: 35.5 µM [inhibitor, partial curve] | 
CCc1ccc(/C=N/n2c(COc3ccccc3)n[nH]c2=S)cc1 | inconclusive: 23.8 µM [inhibitor, single point] | 
CCOC(=O)N1CCN(CC(O)c2ccc3c(c2)CCN3)CC1 (centres undefined) |  | inactive: -7.2%
CN(CCCC(=O)NC1CC(C)(C)NC(C)(C)C1)S(=O)(=O)c1ccc([N+](=O)[O-])cc1 |  | inactive: -17.2%
Cc1cc(C)c2nc(SCC(=O)NCCC3=CCCCC3)cc(C)c2c1 |  | inconclusive: -36.2% [inhibitor]
O=C(NCc1cccnc1)c1ccc2c(=O)n(CCCN3CCCC3=O)c(=S)[nH]c2c1 |  | inactive: -7.56%
Cc1cc2nc3c(=O)n(Cc4ccccc4)c(=O)[nH]c3nc2cc1N | active: 3.36 µM | 
N#C/C(=C\C=C\c1ccccc1)c1nc(-c2ccc3c(c2)OCO3)cs1 | inconclusive: 29.9 µM [inhibitor, single point] | 
C/C=C/C=C/C(=O)N1CC2(CC(c3cccc(NC(=O)/C=C/C)c3)=NO2)C[C@@H]1C(N)=O (some centres undefined) |  | inactive: -17.4%
Cc1ccccc1Nc1nc(CSc2nnnn2-c2ccccc2)cs1 | inconclusive: 26.7 µM [inhibitor, partial curve] | 
COc1ccc(N2CCN(CCC(=O)c3ccc4ccccc4c3)CC2)cc1 | active: 6.7 µM | 
COc1ccc(/C=C/C(=O)c2ccccn2)cc1 |  | inactive: -11.7%
COc1ccc(Cl)cc1/C=C1/C(=O)ON=C1C | inconclusive: 11.9 µM [inhibitor, partial curve, poor fit] | 
CC1(C)CC(=O)c2sc(NS(=O)(=O)Cc3ccccc3)nc2C1 | active: 23.8 µM | 

SMILES | Potency | max response, negative = inhibition
O=C(O)c1ccc(N=Nc2c(O)[nH]c3ccc(Br)cc23)cc1 | inconclusive: 29.9 µM [inhibitor, single point] | 
Cn1cc(C(=O)N/N=C/C=C/c2ccccc2)ccc1=O | inconclusive: 29.9 µM [inhibitor, single point] | 
Cc1ccc(C)c(OCCCC(=O)N2CCOCC2)c1 | inconclusive: 13.4 µM [inhibitor, partial curve] | 
COc1ccc(-c2c(C#N)c(N)nc3sc(C(=O)c4ccc(C)cc4)c(N)c23)cc1 | inconclusive: 21.2 µM [inhibitor, single point] | 
Cc1cccc(Nc2n[nH]c(=S)s2)c1C | active: 29.9 µM | 
O=C1/C(=C/c2cccc(F)c2)SC(=S)N1NS(=O)(=O)c1ccccc1 | inconclusive: 29.9 µM [inhibitor, partial curve] | 
O=C(COC(=O)c1cc[n+]([O-])cc1)Nc1cccc(Br)c1 |  | inactive: -12.7%
COc1cc(/C=C2\C(=N)N3N=C(S(C)(=O)=O)SC3=NC2=O)cc(OC)c1OCCOc1cccc(C)c1 | active: 29.9 µM | 
S=c1[nH]nc(COc2ccc(Cl)cc2)n1Cc1ccco1 | inconclusive: 37.7 µM [inhibitor, partial curve, poor fit] | 
COC(=O)c1c(NC(=O)Cc2ccccc2)sc2c1CC(C)(C)NC2(C)C | active: 23.8 µM | 
CCCCOc1ccc(Cc2n[nH]c(=S)n2N)cc1 | active: 3.77 µM | 
Cc1ccccc1OCC(=O)OC(C)CN1CCN(C)CC1 (centres undefined) |  | inactive: -1.89%
CCOC(=O)C1CCN(C(C)=C2C(=O)c3ccccc3C2=O)CC1 | inconclusive: 23.8 µM [inhibitor, partial curve] | 
CCOC(=O)CSc1nc(C2CC2)cc(-c2ccc(F)cc2)c1C#N | inconclusive: 29.9 µM [inhibitor, partial curve] | 
COc1ccc(CNC(=O)C(=O)NCC2CCCO2)cc1 (centres undefined) | active: 2.99 µM | 
Cc1cc(N2CC(C)OC(C)C2)nc2ccccc12 (centres undefined) | active: 26.7 µM | 
Cc1cccc(N(C)C(=O)CCS(=O)(=O)c2cc3c(cc2Cl)NC(=O)CO3)c1 | inconclusive: 26.7 µM [inhibitor, partial curve] | 
O=C(CSc1ccccc1)N1CCN(C(=O)c2ccco2)CC1 | inconclusive: 26.7 µM [inhibitor, single point] | 
O=C(Nc1cccc(-c2nc3cccnc3s2)c1)c1cccnc1Cl | inconclusive: 29.9 µM [inhibitor, partial curve] | 
CCOC(=O)c1cc(-c2ccc(OC)cc2)nc2c1c(C)nn2CCC(N)=S | inconclusive: 29.9 µM [inhibitor, partial curve] | 
COc1cc(/C=C2\SC(=S)N(N3CCOCC3)C2=O)ccc1O |  | inconclusive: -32.8% [inhibitor]
C=C(C)C(=O)NC1=NN(c2ccccc2)C(=O)C1 | inconclusive: 21.2 µM [inhibitor, single point] | 
CC(=O)N(C1=C(N2CCOCC2)C(=O)c2ccccc2C1=O)c1ccc(C(=O)O)cc1 | inconclusive: 23.8 µM [inhibitor, single point] | 

By substructure, the compounds so far containing a furan ring, fused or not
SMILES | Potency | max response, negative = inhibition
CC(C)(C)c1ccc(Cn2nnc3c(=O)[nH]c(C4CCN(C(=O)c5ccco5)CC4)nc32)cc1 | inconclusive: 33.6 µM [inhibitor, single point] | 
COC(=O)c1ccc(CN(c2ccc(C)cc2)S(=O)(=O)c2ccc3c(c2)OCCO3)o1 | active: 2.99 µM | 
S=c1[nH]nc(COc2ccc(Cl)cc2)n1Cc1ccco1 | inconclusive: 37.7 µM [inhibitor, partial curve, poor fit] | 
O=C(CSc1ccccc1)N1CCN(C(=O)c2ccco2)CC1 | inconclusive: 26.7 µM [inhibitor, single point] | 

Source: PubChem BioAssay AID720504 (National Center for Advancing Translational Sciences (NCATS), 2013)
